{"source": "patent US7682403B2", "about": "“Method for treating laundry” (Ecolab Inc., priority 2004, dated 2010)", "experiment": "Ozone bleaching of tea stained swatches as a function of pH (Example 4)", "conditions": "ozonated water 67 to 69° F., 1 to 2 ppm dissolved ozone, 15 or 30 minutes", "data": [{"smiles": "O=[O+][O-]", "note": "[ozone]", "values": [{"measurement": "bleaching (% Soil Removal)", "setting": "pH=4.0 (acid condition)", "result": "minimal"}, {"measurement": "bleaching (% Soil Removal)", "setting": "pH=9.0 (basic condition)", "result": "minimal"}]}]}
